These are yes or no findings as the source states them, for the method shown. In cells and extracts the contact can be indirect. A yes stands for co-enrichment or nearness to the bait. Other partners may have been found. For some assays here: Sequences can lack the tags named with a protein.
Key:
[1] = target: T1, MET-2 (wild type, in LIN-65::GFP embryos) (C. elegans) (UniProt P34544); experiment: affinity purification with mass spectrometry; LIN-65::GFP as bait, immunoprecipitation-MS/MS, iBAQ values; WT or met-2-CD embryos
T1 sequence: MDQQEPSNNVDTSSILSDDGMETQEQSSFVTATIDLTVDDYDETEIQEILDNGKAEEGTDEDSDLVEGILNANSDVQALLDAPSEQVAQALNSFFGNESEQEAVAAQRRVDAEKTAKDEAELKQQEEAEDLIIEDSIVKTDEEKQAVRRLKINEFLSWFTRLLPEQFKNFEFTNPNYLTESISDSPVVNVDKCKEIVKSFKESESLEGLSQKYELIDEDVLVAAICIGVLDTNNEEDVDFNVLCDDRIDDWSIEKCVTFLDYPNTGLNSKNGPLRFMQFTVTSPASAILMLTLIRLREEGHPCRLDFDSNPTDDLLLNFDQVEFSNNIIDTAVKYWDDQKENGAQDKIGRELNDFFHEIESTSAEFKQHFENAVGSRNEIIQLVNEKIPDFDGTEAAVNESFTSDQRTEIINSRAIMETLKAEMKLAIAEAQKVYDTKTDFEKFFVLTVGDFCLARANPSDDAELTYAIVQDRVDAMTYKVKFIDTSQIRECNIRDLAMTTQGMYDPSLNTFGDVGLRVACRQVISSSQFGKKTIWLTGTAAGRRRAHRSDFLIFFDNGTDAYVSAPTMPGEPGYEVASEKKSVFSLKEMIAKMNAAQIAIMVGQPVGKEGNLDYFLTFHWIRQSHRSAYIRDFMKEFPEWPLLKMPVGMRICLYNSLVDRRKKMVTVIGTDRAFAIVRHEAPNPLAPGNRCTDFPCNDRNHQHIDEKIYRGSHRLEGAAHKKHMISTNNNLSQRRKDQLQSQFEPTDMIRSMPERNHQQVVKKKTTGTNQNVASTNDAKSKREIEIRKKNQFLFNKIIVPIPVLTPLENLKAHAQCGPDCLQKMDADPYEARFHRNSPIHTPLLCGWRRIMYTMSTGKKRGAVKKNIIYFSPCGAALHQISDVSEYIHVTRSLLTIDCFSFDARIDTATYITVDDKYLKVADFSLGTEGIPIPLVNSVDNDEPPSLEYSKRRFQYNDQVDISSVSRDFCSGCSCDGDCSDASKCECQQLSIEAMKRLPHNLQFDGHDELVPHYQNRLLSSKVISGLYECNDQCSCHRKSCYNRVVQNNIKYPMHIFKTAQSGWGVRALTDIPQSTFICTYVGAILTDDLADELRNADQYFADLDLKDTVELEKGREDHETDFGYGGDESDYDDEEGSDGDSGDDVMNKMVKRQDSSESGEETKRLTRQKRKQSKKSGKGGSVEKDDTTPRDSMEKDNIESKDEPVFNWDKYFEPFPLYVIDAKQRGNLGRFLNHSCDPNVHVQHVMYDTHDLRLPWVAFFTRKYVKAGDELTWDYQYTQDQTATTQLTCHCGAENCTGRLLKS

[2] = target: T2, MET-2-CD (C1237A, catalytically deficient MET-2) (C. elegans) (UniProt P34544); experiment: as above
T2 sequence: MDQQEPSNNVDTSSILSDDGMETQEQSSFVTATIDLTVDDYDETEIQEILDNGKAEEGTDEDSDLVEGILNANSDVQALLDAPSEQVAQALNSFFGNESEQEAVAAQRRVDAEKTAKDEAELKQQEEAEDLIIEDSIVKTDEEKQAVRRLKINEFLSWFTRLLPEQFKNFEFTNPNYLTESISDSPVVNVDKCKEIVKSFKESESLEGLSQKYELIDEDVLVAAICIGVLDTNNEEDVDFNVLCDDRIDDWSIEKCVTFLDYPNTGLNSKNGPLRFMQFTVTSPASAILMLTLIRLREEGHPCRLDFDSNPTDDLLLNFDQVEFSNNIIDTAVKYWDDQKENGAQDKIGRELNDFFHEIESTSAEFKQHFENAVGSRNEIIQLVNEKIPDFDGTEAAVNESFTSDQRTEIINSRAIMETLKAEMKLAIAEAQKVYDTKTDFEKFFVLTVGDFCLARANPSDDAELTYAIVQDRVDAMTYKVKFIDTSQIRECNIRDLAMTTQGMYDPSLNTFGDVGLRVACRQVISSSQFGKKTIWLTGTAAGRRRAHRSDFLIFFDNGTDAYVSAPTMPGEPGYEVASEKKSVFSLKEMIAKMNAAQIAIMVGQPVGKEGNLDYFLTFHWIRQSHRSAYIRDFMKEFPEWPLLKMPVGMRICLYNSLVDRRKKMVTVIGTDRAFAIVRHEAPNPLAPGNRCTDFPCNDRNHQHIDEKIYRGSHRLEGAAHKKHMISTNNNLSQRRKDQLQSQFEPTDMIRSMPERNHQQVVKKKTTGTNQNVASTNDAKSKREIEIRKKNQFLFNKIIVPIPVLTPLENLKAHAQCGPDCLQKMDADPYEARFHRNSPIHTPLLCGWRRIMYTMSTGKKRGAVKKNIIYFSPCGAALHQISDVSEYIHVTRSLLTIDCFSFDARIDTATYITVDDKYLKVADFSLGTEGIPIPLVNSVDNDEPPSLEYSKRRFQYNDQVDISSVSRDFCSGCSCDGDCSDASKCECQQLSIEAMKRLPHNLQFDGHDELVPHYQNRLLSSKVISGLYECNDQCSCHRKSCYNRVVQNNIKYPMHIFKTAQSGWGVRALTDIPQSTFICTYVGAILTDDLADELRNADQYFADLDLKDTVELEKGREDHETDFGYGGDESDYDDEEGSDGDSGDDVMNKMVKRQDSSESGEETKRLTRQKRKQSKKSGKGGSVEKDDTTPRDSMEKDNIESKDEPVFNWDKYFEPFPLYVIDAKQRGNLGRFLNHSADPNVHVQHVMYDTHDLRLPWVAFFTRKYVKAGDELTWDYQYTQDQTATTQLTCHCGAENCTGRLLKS

[3] = target: T3, MET-2::FLAG::mCherry (C. elegans) (UniProt P34544); experiment: affinity purification with mass spectrometry; MET-2::FLAG::mCherry as bait on anti-FLAG-M2 beads; homogenized, sonicated and cleared embryo lysates in TAP buffer (150 mM NaCl, 20 mM Tris-HCl pH 7.5, 0.5% NP-40, 1 mM EDTA, 10% glycerol, 1 mM DTT) at 4 °C; LC-MS/MS, iBAQ values; WT, lin-65Δ(gw1465) and arle-14Δ(tm6845) embryos (ablation of one cofactor did not affect binding of the other to MET-2)
T3 sequence: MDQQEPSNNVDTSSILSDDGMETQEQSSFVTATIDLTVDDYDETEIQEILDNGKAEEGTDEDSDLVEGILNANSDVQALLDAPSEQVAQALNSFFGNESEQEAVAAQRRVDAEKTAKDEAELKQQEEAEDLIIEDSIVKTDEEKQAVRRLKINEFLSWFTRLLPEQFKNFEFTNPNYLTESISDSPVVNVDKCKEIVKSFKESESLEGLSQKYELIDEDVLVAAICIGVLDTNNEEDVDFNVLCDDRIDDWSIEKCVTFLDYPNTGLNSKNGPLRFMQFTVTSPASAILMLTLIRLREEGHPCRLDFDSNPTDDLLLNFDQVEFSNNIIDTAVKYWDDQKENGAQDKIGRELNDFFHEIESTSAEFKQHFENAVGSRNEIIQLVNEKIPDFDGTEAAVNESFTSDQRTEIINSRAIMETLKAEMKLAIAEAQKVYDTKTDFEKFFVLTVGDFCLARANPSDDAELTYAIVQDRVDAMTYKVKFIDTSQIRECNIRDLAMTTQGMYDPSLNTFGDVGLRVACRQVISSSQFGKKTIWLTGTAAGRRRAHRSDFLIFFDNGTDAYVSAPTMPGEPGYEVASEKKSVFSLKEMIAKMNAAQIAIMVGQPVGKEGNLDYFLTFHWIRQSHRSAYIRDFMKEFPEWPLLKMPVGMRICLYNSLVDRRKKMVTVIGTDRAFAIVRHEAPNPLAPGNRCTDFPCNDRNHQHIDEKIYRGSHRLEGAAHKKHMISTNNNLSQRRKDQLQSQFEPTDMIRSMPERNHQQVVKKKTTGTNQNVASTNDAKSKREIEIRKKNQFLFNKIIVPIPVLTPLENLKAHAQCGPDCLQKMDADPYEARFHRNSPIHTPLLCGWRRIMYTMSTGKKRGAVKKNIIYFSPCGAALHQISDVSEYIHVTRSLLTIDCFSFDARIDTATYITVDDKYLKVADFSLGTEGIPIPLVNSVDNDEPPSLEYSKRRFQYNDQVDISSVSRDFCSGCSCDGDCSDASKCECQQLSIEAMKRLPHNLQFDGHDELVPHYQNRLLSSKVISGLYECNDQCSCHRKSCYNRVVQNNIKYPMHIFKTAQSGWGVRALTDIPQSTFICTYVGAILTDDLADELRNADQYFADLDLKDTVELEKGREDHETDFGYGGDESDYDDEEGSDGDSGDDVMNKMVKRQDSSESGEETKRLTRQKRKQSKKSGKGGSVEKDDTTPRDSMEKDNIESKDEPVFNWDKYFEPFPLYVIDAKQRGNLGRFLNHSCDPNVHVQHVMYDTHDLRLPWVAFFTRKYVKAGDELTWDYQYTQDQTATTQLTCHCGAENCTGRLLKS

LIN-65::GFP (C. elegans) = experiment: affinity purification with mass spectrometry; LIN-65::GFP as bait, immunoprecipitation-MS/MS, iBAQ values; WT or met-2-CD embryos

In the case of “ARLE-14 (C. elegans (endogenous in embryos))”, the binding [1] is reported as “binds”, the binding [2] is reported as “binds” and the binding [3] is reported as “binds”.

With “LIN-65 (C. elegans (endogenous in embryos))” the binding [3] was “binds”.

B1: MET-2 (wild type, in LIN-65::GFP embryos) (enzyme, UniProt P34544 1-1304)
chain: MDQQEPSNNVDTSSILSDDGMETQEQSSFVTATIDLTVDDYDETEIQEILDNGKAEEGTDEDSDLVEGILNANSDVQALLDAPSEQVAQALNSFFGNESEQEAVAAQRRVDAEKTAKDEAELKQQEEAEDLIIEDSIVKTDEEKQAVRRLKINEFLSWFTRLLPEQFKNFEFTNPNYLTESISDSPVVNVDKCKEIVKSFKESESLEGLSQKYELIDEDVLVAAICIGVLDTNNEEDVDFNVLCDDRIDDWSIEKCVTFLDYPNTGLNSKNGPLRFMQFTVTSPASAILMLTLIRLREEGHPCRLDFDSNPTDDLLLNFDQVEFSNNIIDTAVKYWDDQKENGAQDKIGRELNDFFHEIESTSAEFKQHFENAVGSRNEIIQLVNEKIPDFDGTEAAVNESFTSDQRTEIINSRAIMETLKAEMKLAIAEAQKVYDTKTDFEKFFVLTVGDFCLARANPSDDAELTYAIVQDRVDAMTYKVKFIDTSQIRECNIRDLAMTTQGMYDPSLNTFGDVGLRVACRQVISSSQFGKKTIWLTGTAAGRRRAHRSDFLIFFDNGTDAYVSAPTMPGEPGYEVASEKKSVFSLKEMIAKMNAAQIAIMVGQPVGKEGNLDYFLTFHWIRQSHRSAYIRDFMKEFPEWPLLKMPVGMRICLYNSLVDRRKKMVTVIGTDRAFAIVRHEAPNPLAPGNRCTDFPCNDRNHQHIDEKIYRGSHRLEGAAHKKHMISTNNNLSQRRKDQLQSQFEPTDMIRSMPERNHQQVVKKKTTGTNQNVASTNDAKSKREIEIRKKNQFLFNKIIVPIPVLTPLENLKAHAQCGPDCLQKMDADPYEARFHRNSPIHTPLLCGWRRIMYTMSTGKKRGAVKKNIIYFSPCGAALHQISDVSEYIHVTRSLLTIDCFSFDARIDTATYITVDDKYLKVADFSLGTEGIPIPLVNSVDNDEPPSLEYSKRRFQYNDQVDISSVSRDFCSGCSCDGDCSDASKCECQQLSIEAMKRLPHNLQFDGHDELVPHYQNRLLSSKVISGLYECNDQCSCHRKSCYNRVVQNNIKYPMHIFKTAQSGWGVRALTDIPQSTFICTYVGAILTDDLADELRNADQYFADLDLKDTVELEKGREDHETDFGYGGDESDYDDEEGSDGDSGDDVMNKMVKRQDSSESGEETKRLTRQKRKQSKKSGKGGSVEKDDTTPRDSMEKDNIESKDEPVFNWDKYFEPFPLYVIDAKQRGNLGRFLNHSCDPNVHVQHVMYDTHDLRLPWVAFFTRKYVKAGDELTWDYQYTQDQTATTQLTCHCGAENCTGRLLKS
For B1, the binding (LIN-65::GFP (C. elegans)) was “binds”.
